Source: US20200131249A1, “NOVEL PROTEINS AND USE THEREOF” (EVOLVERITAS KFT., priority 2017, published 2020)

System: lectin pathway
Test: WIELISA lectin pathway activation in diluted normal human serum
Type: biochemical
Details: lectin pathway IC50 in diluted human serum over KI on human MASP-2

Q: How did the IC50/KI turn out when “SEQ ID NO: 17: TFPI-D2 variant protein with inhibitor loop VCRAVKR (SEQ ID NO: 7) (KPDFCFLEEDPGVCRAVKRRYFYNNQTKQCERFKYGGCLGNMNNFETLEECKNICEDG; Modified Kunitz domain protein)” was run?
A: 10.4

Q: Which IC50/KI does the source give for “SEQ ID NO: 11: TFPI-D2 variant protein with inhibitor loop FCRAVKR (SEQ ID NO: 1) (KPDFCFLEEDPGFCRAVKRRYFYNNQTKQCERFKYGGCLGNMNNFETLEECKNICEDG; Modified Kunitz domain protein)” here?
A: 17.5

Q: For “SEQ ID NO: 14: TFPI-D2 variant protein with inhibitor loop PCRAVKR (SEQ ID NO: 4) (KPDFCFLEEDPGPCRAVKRRYFYNNQTKQCERFKYGGCLGNMNNFETLEECKNICEDG; Modified Kunitz domain protein)”, which IC50/KI is on record?
A: 11.4

Q: “SGMI-2 (GSGEVTCEPGTTFKDKCNTCRCGSDGKSAVCTKLWCNQ; Synthetic protein of insect origin) [reference compound]” was tested. Which IC50/KI did it give?
A: 29
